Experimental data published in PubChem BioAssay AID720504 (National Center for Advancing Translational Sciences (NCATS), 2013).
Among all 360,000 compounds or so, about 10,000 (2.8%) were called active. The shares of active, inactive and inconclusive entries below differ from those in the screen. Calls follow the shape of the dose curve; as a rule, active = well fitted inhibition curve with a large enough effect; inconclusive = small, poorly fitted or top-dose-only effect; inactive = flat fitted curve, though single readings scatter. Where the call is inconclusive, the potency comes from a doubtful curve fit.

Chains of the proteins cited; added tags and fusions are not shown.
UniProt P53350, whole entry, looked up: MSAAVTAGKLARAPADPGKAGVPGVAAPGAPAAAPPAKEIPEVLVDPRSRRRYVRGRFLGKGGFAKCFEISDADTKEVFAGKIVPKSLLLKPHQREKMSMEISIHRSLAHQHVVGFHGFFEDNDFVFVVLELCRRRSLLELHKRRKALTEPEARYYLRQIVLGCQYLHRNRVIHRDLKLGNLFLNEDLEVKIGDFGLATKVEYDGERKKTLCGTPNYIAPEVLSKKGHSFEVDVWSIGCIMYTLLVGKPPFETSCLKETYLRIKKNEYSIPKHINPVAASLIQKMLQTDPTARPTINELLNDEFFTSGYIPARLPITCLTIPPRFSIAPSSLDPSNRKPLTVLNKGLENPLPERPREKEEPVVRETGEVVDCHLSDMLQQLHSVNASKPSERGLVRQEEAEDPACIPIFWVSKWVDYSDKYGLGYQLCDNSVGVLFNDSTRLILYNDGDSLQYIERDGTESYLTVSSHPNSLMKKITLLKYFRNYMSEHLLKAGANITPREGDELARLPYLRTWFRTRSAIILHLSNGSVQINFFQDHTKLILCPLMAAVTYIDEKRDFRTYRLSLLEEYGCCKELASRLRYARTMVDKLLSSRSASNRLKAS

What follows are molecules tested against Serine/threonine-protein kinase PLK1 (Homo sapiens) (UniProt P53350) (assay: qHTS for Inhibitors of PLK1-PDB (polo-like kinase 1 - polo-box domain): Primary Screen). Conditions: Plk1 PBD binding of FITC phosphopeptide, fluorescence polarization.
% is scaled to controls: 0 for no effect and ±100 for the full control effect; potency is read from the fitted curve at half-maximal effect.
Also: nearly all actives have a fitted effect of over 65% in size.
For max response, negative = inhibition in this document: series mostly up to about 57 µM.

Compound	Potency	max response, negative = inhibition
CCOC(=O)c1c(NC(=O)CCC(=O)O)sc2c1CCCCC2	active: 6.7 µM	–
C=CCn1c(=S)[nH]c2sc3c(c2c1=O)CCCC3	inconclusive: 16.8 µM [inhibitor, partial curve]	–
COc1ccc(N2CCN(S(=O)(=O)c3ccc(-c4cc(C)no4)s3)CC2)cc1	inconclusive: 26.7 µM [inhibitor, single point]	–
COc1ccccc1N1CCN(C(=O)C2CCN(C(=O)c3ccc(C(C)(C)C)cc3)CC2)CC1	–	inactive: -2.74%
C=CCOc1ccccc1CNc1ccc2c(c1)OCCO2	inconclusive: 23.8 µM [inhibitor, single point]	–
Cc1cc(C)n(CCNC(=O)CC2C(=O)NCCN2Cc2ccccc2C(F)(F)F)n1 (stereo unspecified)	–	inactive: -18%
Cc1ccc(-n2c(N)c(C(N)=O)sc2=S)c(C)c1	active: 6.7 µM	–
COC1OCC(O)C(NC(=O)N(C)N=O)C1O (stereo unspecified)	–	inactive: 4.74%
C#CCN(C[C@@H]1[C@@H](OC(=O)NCc2ccccc2)[C@@H](OC(=O)NCc2ccccc2)CN(C(=O)OC(C)C)N1C(=O)OC(C)C)S(=O)(=O)c1ccc(C)cc1	inconclusive: 11.9 µM [inhibitor, partial curve]	–
CCOC(=O)C1CCCN(C(=O)c2sc3nc(-c4ccc(F)cc4)cn3c2C)C1 (stereo unspecified)	–	inactive: -13.7%
CCN1/C(=C\C(=S)Nc2ccccc2)Sc2ccccc21	active: 23.8 µM	–
CCOC(=O)C1=NN(C(=O)c2ccc(OC)cc2)C(O)(c2ccc(Cl)cc2)C1 (stereo unspecified)	–	inactive: -6.43%
O=C(N1CCc2[nH]c3ccccc3c2C1)C(F)(F)F	active: 37.7 µM	–
CCN(CC(=O)NCc1ccccn1)S(=O)(=O)c1ccc(Cl)cc1	active: 26.7 µM	–
CC1(C)OC(=O)C(=CSc2ccc(C(C)(C)C)cc2)C(=O)O1	inconclusive: 26.7 µM [inhibitor, partial curve]	–
O=C(NCc1ccccc1)C(CCc1ccccc1)n1c(=O)c(-c2ccccc2)nc2ccccc21 (stereo unspecified)	inconclusive: 13.4 µM [inhibitor, partial curve]	–
Cc1cc2ccccn2c1C(=O)c1ccc(N/N=C/c2ccc(C(=O)O)cc2)c([N+](=O)[O-])c1	inconclusive: 29.9 µM [inhibitor, partial curve]	–
CN(C)C(=O)CSc1nc2cc(S(=O)(=O)N3CCOCC3)ccc2o1	active: 21.2 µM	–
COc1ccc(OC)c(NC(=O)C(=S)NC2CCCCC2)c1	inconclusive: 37.7 µM [inhibitor, partial curve]	–
C1=CC2c3ccccc3NC(c3ccncc3)C2C1 (stereo unspecified)	inconclusive: 26.7 µM [inhibitor, partial curve]	–
CN1CCN(S(=O)(=O)c2ccc(NC(=S)NC(=O)C3CCCCC3)cc2)CC1	inconclusive: 10.6 µM [inhibitor, partial curve]	–
CC(=O)NS(=O)(=O)c1ccc(NC(=O)CSc2ccc(Cl)cc2)cc1	inconclusive: 29.9 µM [inhibitor, partial curve]	–
Cc1cccc2c1NC(=O)C2=O	inconclusive: 23.8 µM [inhibitor, partial curve]	–

Compound	Potency	max response, negative = inhibition
O=C(CN1CCN(Cc2ccccc2)CC1)Nc1cccc(S(=O)(=O)N2CCCCCC2)c1	inconclusive: 13.4 µM [inhibitor, partial curve]	–
CCCc1nnc(NC(=O)CC(C)c2ccccc2)s1 (stereo unspecified)	inconclusive: 21.2 µM [inhibitor, single point]	–
Nc1nc(CSCCO)nc(Nc2ccccc2)n1	active: 26.7 µM	–
Cc1cccc(-c2nnc(NC(=O)c3ccc(Cl)cc3)o2)c1	–	inactive: -18.6%
O=C(NN(C(=O)c1ccccc1)c1ccccc1)c1ccccc1	–	inactive: -1.29%
CC(/C=C/c1ccco1)=N\NC(=O)c1cc(Cl)ccc1O	inconclusive: 23.8 µM [inhibitor, partial curve]	–
CN(C)C(=O)c1ccc(NC(=O)c2cc(-n3cnnc3)ccc2Cl)cc1	active: 16.8 µM	–
Cc1ccccc1-n1c(=O)cc(N2CCc3ccccc3C2)[nH]c1=O	inconclusive: 18.9 µM [inhibitor, partial curve]	–
Cc1ccc(OCC(=O)c2c(N)n(C)c(=O)n(C)c2=O)c([N+](=O)[O-])n1	inconclusive: 29.9 µM [inhibitor, single point]	–
CC(/C=C1\SC(=Nc2cccnc2)NC1=O)=C\c1ccccc1	active: 26.7 µM	–
O=C(O)c1ccc(/C=N/N2CCN(C3c4ccccc4-c4ccccc43)CC2)cc1	–	inconclusive: -36.7% [inhibitor]
OC(COC(c1ccc(F)cc1)c1ccc(F)cc1)CN1CCCC(C(F)(F)F)C1 (stereo unspecified)	–	inactive: 3.73%
Cc1ccccc1C(=O)Nc1cccc(NC(=O)c2ncn[nH]2)c1	inconclusive: 15 µM [inhibitor, partial curve]	–
Cc1ccc(OCC(=O)Nc2ccc3c(c2)OC(F)(F)O3)c([N+](=O)[O-])n1	–	inactive: -0.128%
CC(Oc1ccc(Cl)cc1Cl)C(=O)NC1=NN(c2ccccc2)C(=O)C1 (stereo unspecified)	inconclusive: 21.2 µM [inhibitor, single point]	–
NS(=O)(=O)c1ccc(NC(=S)NCC2CCCO2)cc1 (stereo unspecified)	active: 23.8 µM	–
CCC(C)NC(=O)C1c2ccccc2C(=O)N(c2ccc(OC)cc2)C1c1ccc(OC)cc1 (stereo unspecified)	active: 23.8 µM	–
Cc1ccc(CN2C(=O)CCC2C(=O)NCCN(CC(C)C)CC(C)C)cc1 (stereo unspecified)	–	inactive: -0.293%
CCCc1ccc(C#N)c(SC2CC(=O)N(c3ccc(OC)cc3)C2=O)n1 (stereo unspecified)	–	inactive: -5.29%
Cc1ccc(-n2nc(C)c3c2OC(N)=C(C#N)C3c2ccco2)cc1 (stereo unspecified)	inconclusive: 37.7 µM [inhibitor, partial curve]	–
CCn1nnc2cc(C(=O)O)ccc21	–	inactive: 1.16%
CC(=O)Nc1ccc(SCCN2CC[C@@H](O)CCC2=O)cc1	inconclusive: 18.9 µM [inhibitor, single point]	–
CCOC(=O)/C=C/C(=O)OCC(=O)Nc1ccc(C)cc1	inconclusive: 26.7 µM [inhibitor, partial curve]	–

A draw from above in order of SMILES length, rising.
Compound	Potency	max response, negative = inhibition
O=C(NN(C(=O)c1ccccc1)c1ccccc1)c1ccccc1	–	inactive: -1.29%
CC(=O)Nc1ccc(SCCN2CC[C@@H](O)CCC2=O)cc1	inconclusive: 18.9 µM [inhibitor, single point]	–
Cc1ccc(OCC(=O)Nc2ccc3c(c2)OC(F)(F)O3)c([N+](=O)[O-])n1	–	inactive: -0.128%
